Assay results: the supplement of paper PMC10849652
The other results are listed elsewhere or left out.

Amino acid sequences for entries named in this document (tags omitted). A change or cut given only in a name is not applied to a line headed by its entry.
UniProt Q9UK73, whole entry, looked up: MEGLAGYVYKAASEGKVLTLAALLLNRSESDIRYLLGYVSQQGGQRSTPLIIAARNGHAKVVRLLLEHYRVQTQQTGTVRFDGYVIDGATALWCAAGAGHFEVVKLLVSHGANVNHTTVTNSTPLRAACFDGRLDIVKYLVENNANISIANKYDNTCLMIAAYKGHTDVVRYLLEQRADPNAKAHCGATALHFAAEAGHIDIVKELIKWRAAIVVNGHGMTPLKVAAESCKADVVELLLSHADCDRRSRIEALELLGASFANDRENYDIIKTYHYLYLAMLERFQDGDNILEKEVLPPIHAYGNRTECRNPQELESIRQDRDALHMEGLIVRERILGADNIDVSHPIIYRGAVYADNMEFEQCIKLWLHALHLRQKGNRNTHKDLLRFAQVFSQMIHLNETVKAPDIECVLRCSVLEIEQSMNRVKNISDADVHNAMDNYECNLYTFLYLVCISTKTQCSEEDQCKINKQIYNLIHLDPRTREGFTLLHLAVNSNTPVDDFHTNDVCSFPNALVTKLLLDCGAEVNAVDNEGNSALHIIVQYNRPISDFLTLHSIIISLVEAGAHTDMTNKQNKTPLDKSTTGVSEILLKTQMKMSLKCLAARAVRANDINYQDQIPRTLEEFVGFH
UniProt Q5HYJ3: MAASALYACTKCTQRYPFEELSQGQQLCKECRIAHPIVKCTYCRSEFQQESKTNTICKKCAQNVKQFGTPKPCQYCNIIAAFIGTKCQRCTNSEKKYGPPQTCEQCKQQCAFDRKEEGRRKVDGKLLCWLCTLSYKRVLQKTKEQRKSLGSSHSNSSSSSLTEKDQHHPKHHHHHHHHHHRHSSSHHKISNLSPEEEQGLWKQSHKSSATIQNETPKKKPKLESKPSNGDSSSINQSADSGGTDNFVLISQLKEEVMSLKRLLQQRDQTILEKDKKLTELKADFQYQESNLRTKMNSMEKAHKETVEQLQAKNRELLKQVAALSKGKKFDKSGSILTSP
UniProt Q5T1M5: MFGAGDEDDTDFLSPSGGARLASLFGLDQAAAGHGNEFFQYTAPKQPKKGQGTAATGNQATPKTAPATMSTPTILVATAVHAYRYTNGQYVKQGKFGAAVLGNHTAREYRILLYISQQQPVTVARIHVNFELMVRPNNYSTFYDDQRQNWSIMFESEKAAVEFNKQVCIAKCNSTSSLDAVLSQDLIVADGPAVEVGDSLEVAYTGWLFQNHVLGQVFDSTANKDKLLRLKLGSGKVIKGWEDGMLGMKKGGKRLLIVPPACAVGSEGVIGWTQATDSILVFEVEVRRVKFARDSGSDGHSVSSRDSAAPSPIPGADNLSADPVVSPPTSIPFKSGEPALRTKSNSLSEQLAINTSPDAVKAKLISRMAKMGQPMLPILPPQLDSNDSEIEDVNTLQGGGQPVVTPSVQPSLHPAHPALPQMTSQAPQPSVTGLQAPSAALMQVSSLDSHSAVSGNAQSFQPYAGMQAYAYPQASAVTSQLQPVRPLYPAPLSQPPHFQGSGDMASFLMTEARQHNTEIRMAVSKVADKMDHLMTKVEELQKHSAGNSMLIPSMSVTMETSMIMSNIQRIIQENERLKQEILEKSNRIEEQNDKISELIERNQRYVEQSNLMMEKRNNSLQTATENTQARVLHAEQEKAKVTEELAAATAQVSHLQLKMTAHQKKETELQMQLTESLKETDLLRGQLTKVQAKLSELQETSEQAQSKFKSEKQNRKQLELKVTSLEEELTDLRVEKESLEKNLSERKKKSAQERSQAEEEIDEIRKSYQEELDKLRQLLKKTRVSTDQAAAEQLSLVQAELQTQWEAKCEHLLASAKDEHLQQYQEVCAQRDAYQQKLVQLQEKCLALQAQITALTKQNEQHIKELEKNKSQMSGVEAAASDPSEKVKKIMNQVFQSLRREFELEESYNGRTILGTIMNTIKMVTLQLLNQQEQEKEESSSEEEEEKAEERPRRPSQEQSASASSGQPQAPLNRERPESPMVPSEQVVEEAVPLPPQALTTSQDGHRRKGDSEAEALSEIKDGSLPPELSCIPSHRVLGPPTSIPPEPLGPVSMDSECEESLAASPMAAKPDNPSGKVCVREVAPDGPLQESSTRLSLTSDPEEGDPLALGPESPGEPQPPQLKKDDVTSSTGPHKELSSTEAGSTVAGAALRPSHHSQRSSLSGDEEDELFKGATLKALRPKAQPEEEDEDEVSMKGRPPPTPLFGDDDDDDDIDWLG
UniProt Q00688: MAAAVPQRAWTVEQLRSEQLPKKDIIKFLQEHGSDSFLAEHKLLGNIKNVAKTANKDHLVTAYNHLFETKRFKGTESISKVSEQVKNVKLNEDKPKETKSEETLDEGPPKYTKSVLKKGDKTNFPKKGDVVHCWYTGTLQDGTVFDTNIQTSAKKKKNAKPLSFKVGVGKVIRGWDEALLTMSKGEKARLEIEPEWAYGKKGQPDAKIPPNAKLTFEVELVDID
UniProt P37268: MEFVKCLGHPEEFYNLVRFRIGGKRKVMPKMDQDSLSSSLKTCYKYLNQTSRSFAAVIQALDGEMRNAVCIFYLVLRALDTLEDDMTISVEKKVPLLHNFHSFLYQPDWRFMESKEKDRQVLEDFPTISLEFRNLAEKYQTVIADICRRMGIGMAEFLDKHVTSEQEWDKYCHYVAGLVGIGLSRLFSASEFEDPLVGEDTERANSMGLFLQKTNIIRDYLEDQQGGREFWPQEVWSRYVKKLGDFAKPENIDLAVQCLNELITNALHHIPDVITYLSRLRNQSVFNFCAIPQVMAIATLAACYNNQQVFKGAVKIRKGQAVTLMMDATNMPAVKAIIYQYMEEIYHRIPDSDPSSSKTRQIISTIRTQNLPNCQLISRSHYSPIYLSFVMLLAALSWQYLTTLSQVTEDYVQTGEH
UniProt Q96IG2: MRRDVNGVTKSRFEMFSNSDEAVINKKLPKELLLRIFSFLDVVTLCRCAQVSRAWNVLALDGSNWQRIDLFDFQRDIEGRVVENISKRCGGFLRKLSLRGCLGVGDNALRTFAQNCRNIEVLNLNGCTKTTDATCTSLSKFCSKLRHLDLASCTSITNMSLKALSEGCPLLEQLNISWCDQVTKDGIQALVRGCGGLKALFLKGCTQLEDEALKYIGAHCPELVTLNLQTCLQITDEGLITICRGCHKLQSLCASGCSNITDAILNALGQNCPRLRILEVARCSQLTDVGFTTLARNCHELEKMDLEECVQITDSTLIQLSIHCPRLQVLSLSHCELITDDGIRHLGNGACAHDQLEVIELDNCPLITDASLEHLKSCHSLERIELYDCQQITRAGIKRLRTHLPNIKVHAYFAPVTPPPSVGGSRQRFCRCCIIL
UniProt Q14192: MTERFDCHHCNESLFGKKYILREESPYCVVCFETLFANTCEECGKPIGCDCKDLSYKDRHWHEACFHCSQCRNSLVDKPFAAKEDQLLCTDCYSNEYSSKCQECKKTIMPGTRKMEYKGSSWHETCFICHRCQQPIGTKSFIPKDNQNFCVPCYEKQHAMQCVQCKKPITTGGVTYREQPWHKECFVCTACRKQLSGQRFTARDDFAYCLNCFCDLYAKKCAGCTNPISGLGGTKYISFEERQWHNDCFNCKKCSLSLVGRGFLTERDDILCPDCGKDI
UniProt P22830: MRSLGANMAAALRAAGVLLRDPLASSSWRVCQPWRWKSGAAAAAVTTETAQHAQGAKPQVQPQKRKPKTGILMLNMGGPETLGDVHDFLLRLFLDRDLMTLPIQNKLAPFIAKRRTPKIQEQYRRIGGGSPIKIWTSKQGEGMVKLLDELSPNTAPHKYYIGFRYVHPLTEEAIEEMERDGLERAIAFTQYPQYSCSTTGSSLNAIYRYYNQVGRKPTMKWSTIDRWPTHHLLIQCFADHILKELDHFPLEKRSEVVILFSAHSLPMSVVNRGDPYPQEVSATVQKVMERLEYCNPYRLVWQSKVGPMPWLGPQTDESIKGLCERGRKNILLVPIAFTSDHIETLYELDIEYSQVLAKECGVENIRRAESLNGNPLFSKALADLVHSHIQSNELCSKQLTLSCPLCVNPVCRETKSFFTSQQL
UniProt Q14320: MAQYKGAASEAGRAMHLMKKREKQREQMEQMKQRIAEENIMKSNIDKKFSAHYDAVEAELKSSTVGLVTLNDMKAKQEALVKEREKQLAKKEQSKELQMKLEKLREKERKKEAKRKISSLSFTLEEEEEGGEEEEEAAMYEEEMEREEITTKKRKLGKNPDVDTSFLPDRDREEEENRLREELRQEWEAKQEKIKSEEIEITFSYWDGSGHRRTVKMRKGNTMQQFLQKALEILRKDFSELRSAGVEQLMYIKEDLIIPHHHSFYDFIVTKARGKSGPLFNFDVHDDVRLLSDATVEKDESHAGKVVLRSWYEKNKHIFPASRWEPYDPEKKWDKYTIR
UniProt P22087: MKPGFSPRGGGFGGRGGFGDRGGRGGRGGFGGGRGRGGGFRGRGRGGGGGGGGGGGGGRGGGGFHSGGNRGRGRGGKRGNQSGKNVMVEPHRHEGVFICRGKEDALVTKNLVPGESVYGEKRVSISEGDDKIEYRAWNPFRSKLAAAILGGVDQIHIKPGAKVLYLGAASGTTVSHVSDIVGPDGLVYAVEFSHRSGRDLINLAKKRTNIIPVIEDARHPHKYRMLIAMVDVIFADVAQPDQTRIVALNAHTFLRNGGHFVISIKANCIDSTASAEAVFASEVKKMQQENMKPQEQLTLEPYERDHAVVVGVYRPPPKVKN
UniProt Q9HA64: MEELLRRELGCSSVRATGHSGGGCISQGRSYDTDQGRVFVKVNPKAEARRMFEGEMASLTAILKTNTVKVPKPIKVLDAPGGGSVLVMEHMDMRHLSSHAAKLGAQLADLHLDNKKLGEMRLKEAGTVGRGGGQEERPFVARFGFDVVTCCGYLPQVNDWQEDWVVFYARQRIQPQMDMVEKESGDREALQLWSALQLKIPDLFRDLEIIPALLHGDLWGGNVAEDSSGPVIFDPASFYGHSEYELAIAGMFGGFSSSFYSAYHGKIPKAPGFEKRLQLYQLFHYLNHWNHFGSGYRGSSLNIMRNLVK
UniProt Q9NWM8: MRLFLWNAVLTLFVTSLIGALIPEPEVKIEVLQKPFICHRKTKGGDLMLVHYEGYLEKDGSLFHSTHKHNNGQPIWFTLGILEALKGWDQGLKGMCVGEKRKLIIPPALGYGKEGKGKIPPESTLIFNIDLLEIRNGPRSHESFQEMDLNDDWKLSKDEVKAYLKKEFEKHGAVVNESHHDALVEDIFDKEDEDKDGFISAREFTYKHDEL
UniProt Q9NRD1: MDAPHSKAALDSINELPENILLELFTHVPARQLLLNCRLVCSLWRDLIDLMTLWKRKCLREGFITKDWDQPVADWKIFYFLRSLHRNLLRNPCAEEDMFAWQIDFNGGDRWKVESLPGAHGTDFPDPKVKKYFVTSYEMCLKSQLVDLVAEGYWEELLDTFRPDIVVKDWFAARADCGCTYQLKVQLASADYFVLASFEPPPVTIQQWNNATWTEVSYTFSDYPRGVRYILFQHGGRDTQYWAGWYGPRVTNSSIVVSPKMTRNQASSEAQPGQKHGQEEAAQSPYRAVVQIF
UniProt Q9Y421: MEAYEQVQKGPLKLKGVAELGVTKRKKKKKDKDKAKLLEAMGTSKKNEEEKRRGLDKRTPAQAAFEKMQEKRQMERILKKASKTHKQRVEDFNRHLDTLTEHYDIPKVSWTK
UniProt P14324: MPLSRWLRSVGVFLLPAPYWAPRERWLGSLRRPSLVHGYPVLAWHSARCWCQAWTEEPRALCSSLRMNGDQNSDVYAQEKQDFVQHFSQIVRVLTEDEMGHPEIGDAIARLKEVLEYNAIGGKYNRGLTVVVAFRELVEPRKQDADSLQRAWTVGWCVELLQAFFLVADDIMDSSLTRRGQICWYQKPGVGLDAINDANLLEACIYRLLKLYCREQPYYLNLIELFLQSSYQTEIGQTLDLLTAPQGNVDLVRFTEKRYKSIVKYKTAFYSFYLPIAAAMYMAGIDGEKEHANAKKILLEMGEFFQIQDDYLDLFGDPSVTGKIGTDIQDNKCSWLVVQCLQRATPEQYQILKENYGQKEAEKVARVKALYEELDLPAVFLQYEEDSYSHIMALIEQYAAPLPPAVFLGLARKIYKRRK
UniProt Q9NSD9: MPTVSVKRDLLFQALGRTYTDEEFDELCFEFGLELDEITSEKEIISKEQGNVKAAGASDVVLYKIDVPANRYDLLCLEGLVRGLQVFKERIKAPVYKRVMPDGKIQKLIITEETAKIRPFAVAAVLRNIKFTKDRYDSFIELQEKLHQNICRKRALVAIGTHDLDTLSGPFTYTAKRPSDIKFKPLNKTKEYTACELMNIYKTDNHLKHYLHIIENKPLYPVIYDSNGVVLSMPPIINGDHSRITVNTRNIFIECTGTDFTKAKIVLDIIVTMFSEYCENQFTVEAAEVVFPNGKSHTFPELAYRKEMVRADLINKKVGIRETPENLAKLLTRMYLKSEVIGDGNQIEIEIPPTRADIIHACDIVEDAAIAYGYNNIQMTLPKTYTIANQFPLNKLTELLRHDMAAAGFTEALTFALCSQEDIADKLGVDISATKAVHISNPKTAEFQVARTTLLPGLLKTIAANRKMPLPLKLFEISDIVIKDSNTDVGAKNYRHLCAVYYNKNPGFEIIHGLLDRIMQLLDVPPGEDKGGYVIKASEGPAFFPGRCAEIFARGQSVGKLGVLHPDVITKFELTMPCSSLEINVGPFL

Compound: NC(=O)c1cnc(N[C@@H]2CCCC[C@@H]2N)nc1Nc1cccc(-n2nccn2)c1
Assay: log2 fold change, soluble protein after heating vs DMSO (PISA); higher = thermal stabilisation; K562 cells, 10 uM, 30 min; active = over 0.2 and 3.5 SD of the protein, either way, in both replicates (recomputed)
Method in brief: (§1)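 Thermal stability values are relative to control samples and come from duplicates. They are expressed as log2 fold changes. For measurement, K562 cells (2×10^6 cells/mL) received 10 μM compound for 30 min, and aliquots were heated for 3 min over 48°C-58°C, pooled, and extracted at 4°C in PBS with 0.5% NP-40. Soluble protein, the supernatant after 21,000xg for 90 min, was quantified by TMTpro 16plex LC-MS/MS with equalised channel sums.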

log2 fold change, inactive:
FBXO5 (UniProt Q9UKT4) -0.03
FEM1B (UniProt Q9UK73) -0.028
FKBP7 (UniProt Q9Y680) -0.017
FAM76B (UniProt Q5HYJ3) 0.064
FIP1L1 (UniProt Q6UN15) 0.042
FBXO22 (UniProt Q8NEZ5) -0.013
FAM91A1 (UniProt Q658Y4) -0.061
FKBP15 (UniProt Q5T1M5) -0.081
FKBP3 (UniProt Q00688) 0.019
FBXO7 (UniProt Q9Y3I1) -0.052
FDX2 (UniProt Q6P4F2) -0.007
FDFT1 (UniProt P37268) 0.064
FBXL20 (UniProt Q96IG2) 0.038
FKBPL (UniProt Q9UIM3) -0.016
FARS2 (UniProt O95363) 0.003
FBXO30 (UniProt Q8TB52) -0.032
FHL2 (UniProt Q14192) 0
FECH isoform 2 (UniProt P22830) 0.171
FAM50A (UniProt Q14320) -0.008
FBL (UniProt P22087) 0.165
FBLL1 (UniProt A6NHQ2) 0.25
FBXO3 (UniProt Q9UK99) -0.013
FN3KRP (UniProt Q9HA64) -0.005
FLVCR1 (UniProt Q9Y5Y0) -0.021
FAM8A1 (UniProt Q9UBU6) -0.058
FGFR1OP (UniProt O95684) -0.085
FKBP14 (UniProt Q9NWM8) -0.041
FGF13 isoform 3 (UniProt Q92913) -0.049
FBXO6 (UniProt Q9NRD1) 0.034
FKBP2 (UniProt P26885) -0.063
FAM32A (UniProt Q9Y421) -0.019
FDPS (UniProt P14324) -0.136
FNBP4 isoform 2 (UniProt Q8N3X1) 0.004
FAM98B (UniProt Q52LJ0) 0.031
FARSB (UniProt Q9NSD9) -0.042
FAM98A (UniProt Q8NCA5) 0.043
FAU (UniProt P62861) 0.097
FIS1 (UniProt Q9Y3D6) 0.075
FAM3C (UniProt Q92520) 0.056

Compound: NC1(c2ccc(-c3nc4ccn5c(=O)[nH]nc5c4cc3-c3ccccc3)cc2)CCC1
Assay: as above
Method in brief: as §1

log2 fold change, inactive:
FBXO5 (UniProt Q9UKT4) -0.021
FEM1B (UniProt Q9UK73) -0.065
FKBP7 (UniProt Q9Y680) 0.005
FAM76B (UniProt Q5HYJ3) 0.119
FIP1L1 (UniProt Q6UN15) 0.11
FBXO22 (UniProt Q8NEZ5) -0.071
FAM91A1 (UniProt Q658Y4) -0.08
FKBP15 (UniProt Q5T1M5) -0.048
FKBP3 (UniProt Q00688) 0.02
FBXO7 (UniProt Q9Y3I1) -0.077
FDX2 (UniProt Q6P4F2) -0.045
FDFT1 (UniProt P37268) -0.042
FBXL20 (UniProt Q96IG2) -0.071
FKBPL (UniProt Q9UIM3) -0.045
FARS2 (UniProt O95363) -0.222
FBXO30 (UniProt Q8TB52) -0.126
FHL2 (UniProt Q14192) 0.026
FECH isoform 2 (UniProt P22830) 0.288
FAM50A (UniProt Q14320) -0.087
FBL (UniProt P22087) 0.455
FBLL1 (UniProt A6NHQ2) 0.341
FBXO3 (UniProt Q9UK99) -0.202
FN3KRP (UniProt Q9HA64) 0.021
FLVCR1 (UniProt Q9Y5Y0) 0.048
FAM8A1 (UniProt Q9UBU6) 0.07
FGFR1OP (UniProt O95684) -0.034
FKBP14 (UniProt Q9NWM8) -0.014
FGF13 isoform 3 (UniProt Q92913) -0.11
FKBP2 (UniProt P26885) -0.011
FAM32A (UniProt Q9Y421) 0.087
FDPS (UniProt P14324) -0.48
FNBP4 isoform 2 (UniProt Q8N3X1) 0.015
FAM98B (UniProt Q52LJ0) -0.095
FARSB (UniProt Q9NSD9) -0.054
FAM98A (UniProt Q8NCA5) 0.234
FAU (UniProt P62861) 0.286
FIS1 (UniProt Q9Y3D6) 0.002
FAM3C (UniProt Q92520) -0.088

log2 fold change, active:
FBXO6 (UniProt Q9NRD1) 0.366
